Source: PMC8789783
Results are given in words; binding and its absence hold for the method and conditions named. In cells and extracts the contact can be indirect. Some binding calls cover weakened binding; strength is not graded here.

Target: T1, human wild-type FOXO1 (human), Q12778
T1 chain: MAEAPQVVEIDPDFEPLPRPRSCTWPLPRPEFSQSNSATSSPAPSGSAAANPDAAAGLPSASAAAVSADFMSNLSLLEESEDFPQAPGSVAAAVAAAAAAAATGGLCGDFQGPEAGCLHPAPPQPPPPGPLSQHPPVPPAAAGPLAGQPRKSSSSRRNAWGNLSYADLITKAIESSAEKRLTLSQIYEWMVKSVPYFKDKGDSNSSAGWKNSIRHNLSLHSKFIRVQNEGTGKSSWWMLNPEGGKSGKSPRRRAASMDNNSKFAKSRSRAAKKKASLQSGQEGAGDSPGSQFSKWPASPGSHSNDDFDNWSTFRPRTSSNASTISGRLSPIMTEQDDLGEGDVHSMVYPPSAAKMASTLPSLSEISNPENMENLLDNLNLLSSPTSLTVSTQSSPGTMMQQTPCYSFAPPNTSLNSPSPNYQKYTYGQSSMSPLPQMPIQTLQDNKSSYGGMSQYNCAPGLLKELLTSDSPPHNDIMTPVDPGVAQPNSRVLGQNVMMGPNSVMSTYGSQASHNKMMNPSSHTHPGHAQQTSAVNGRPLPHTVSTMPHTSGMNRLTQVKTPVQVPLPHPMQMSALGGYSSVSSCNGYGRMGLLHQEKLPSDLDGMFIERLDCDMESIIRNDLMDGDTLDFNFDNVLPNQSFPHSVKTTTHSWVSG
Assay: co-IP; HEK293T cells transfected with wild-type or mutated pCMV-FOXO1; lysed in RIPA buffer (50 mM Tris/HCl pH 7.4, 150 mM NaCl, 1 mM EDTA, 0.25% sodium deoxycholate, 1% NP-40); 3 mg of proteins precipitated overnight at 4 °C with anti-FOXO1 antibody, protein A/G beads; blot with anti-FOXO1 and anti-ATG7
Conditions: remark: other sources report otherwise

- binding: binds
B1: ATG7, O95352 1-703 (protein)
chain: MAAATGDPGLSKLQFAPFSSALDVGFWHELTQKKLNEYRLDEAPKDIKGYYYNGDSAGLPARLTLEFSAFDMSAPTPARCCPAIGTLYNTNTLESFKTADKKLLLEQAANEIWESIKSGTALENPVLLNKFLLLTFADLKKYHFYYWFCYPALCLPESLPLIQGPVGLDQRFSLKQIEALECAYDNLCQTEGVTALPYFLIKYDENMVLVSLLKHYSDFFQGQRTKITIGVYDPCNLAQYPGWPLRNFLVLAAHRWSSSFQSVEVVCFRDRTMQGARDVAHSIIFEVKLPEMAFSPDCPKAVGWEKNQKGGMGPRMVNLSECMDPKRLAESSVDLNLKLMCWRLVPTLDLDKVVSVKCLLLGAGTLGCNVARTLMGWGVRHITFVDNAKISYSNPVRQPLYEFEDCLGGGKPKALAAADRLQKIFPGVNARGFNMSIPMPGHPVNFSSVTLEQARRDVEQLEQLIESHDVVFLLMDTRESRWLPAVIAASKRKLVINAALGFDTFVVMRHGLKKPKQQGAGDLCPNHPVASADLLGSSLFANIPGYKLGCYFCNDVVAPGDSTRDRTLDQQCTVSRPGLAVIAGALAVELMVSVLQHPEGGYAIASSSDDRMNEPPTSLGLVPHQIRGFLSRFDNVLPVSLAFDKCTACSSKVLDQYEREGFNFLAKVFNSSHSFLEDLTGLTLLHQETQAAEIWDMSDDETI
